In the supplement of paper PMC10849652:
This is one part of the list.

Chains of the proteins cited; added tags and fusions are not shown. Lines headed by an entry give the natural chain unless they say otherwise; changes in a name come on top.
UniProt Q9BSL1: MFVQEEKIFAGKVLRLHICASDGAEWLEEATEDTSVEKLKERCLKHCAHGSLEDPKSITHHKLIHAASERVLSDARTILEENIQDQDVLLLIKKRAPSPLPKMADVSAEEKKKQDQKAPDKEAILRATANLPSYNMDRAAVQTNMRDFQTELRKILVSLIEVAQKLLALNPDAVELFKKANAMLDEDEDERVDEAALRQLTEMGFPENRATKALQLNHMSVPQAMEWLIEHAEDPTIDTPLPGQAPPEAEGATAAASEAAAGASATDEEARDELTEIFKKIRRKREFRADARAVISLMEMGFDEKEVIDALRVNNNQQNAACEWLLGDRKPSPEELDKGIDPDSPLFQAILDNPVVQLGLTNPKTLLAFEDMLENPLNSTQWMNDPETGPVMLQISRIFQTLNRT
UniProt Q9Y385: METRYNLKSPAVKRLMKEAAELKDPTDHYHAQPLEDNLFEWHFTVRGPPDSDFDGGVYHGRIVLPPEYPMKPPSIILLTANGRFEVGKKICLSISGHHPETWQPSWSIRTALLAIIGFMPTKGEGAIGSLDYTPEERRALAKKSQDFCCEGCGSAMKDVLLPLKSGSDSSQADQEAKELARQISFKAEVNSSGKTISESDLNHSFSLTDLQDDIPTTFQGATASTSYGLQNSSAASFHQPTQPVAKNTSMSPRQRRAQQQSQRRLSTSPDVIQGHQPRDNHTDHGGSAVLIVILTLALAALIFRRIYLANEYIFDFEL
UniProt P04818: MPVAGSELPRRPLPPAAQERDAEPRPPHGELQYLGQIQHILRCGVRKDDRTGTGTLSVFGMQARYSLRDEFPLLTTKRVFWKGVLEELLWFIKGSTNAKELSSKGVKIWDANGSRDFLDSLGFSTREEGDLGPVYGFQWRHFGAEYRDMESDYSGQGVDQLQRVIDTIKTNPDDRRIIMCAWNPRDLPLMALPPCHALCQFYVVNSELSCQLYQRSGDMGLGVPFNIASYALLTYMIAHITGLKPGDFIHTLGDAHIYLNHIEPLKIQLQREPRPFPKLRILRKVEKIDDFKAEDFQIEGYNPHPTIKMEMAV
UniProt P22314: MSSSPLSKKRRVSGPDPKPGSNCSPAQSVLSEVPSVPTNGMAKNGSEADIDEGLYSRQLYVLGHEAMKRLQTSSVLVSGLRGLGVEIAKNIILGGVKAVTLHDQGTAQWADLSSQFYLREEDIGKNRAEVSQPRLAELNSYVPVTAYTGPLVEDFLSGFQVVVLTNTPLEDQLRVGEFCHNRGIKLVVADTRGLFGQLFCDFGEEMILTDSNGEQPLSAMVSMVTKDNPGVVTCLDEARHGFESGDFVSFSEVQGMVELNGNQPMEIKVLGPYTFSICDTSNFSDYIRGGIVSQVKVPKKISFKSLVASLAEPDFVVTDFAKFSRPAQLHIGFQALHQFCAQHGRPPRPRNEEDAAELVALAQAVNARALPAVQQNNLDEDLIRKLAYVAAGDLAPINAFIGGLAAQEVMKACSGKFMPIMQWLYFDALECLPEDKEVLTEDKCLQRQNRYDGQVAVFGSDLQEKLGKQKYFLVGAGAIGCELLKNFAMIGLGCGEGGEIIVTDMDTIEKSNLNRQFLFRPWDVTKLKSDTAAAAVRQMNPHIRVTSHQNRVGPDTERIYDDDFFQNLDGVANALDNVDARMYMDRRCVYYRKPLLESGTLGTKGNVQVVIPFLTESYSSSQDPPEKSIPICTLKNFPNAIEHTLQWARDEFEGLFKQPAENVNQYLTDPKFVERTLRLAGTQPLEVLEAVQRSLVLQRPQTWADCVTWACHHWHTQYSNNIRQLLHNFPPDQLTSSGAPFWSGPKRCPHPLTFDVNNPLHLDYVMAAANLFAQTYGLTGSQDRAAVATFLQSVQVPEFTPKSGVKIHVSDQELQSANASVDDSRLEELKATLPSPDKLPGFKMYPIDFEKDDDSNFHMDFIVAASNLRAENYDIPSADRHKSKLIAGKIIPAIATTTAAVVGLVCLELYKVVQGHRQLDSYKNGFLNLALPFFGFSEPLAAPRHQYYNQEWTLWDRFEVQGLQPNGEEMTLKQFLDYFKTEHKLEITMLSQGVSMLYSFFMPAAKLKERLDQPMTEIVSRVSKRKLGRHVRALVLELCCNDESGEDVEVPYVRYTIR
UniProt Q9NY65, whole entry, looked up: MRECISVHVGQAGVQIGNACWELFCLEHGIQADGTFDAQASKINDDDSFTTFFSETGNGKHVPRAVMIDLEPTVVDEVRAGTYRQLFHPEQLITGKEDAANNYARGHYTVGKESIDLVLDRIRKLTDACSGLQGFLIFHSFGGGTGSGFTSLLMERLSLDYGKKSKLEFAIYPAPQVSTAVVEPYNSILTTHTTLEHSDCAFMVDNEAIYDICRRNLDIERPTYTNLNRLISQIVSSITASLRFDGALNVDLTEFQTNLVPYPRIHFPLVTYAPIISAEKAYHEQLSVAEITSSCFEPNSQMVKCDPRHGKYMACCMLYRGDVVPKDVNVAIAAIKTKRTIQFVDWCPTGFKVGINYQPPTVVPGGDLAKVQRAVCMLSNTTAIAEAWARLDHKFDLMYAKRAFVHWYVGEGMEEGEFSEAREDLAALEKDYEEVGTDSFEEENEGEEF
UniProt Q96AE7: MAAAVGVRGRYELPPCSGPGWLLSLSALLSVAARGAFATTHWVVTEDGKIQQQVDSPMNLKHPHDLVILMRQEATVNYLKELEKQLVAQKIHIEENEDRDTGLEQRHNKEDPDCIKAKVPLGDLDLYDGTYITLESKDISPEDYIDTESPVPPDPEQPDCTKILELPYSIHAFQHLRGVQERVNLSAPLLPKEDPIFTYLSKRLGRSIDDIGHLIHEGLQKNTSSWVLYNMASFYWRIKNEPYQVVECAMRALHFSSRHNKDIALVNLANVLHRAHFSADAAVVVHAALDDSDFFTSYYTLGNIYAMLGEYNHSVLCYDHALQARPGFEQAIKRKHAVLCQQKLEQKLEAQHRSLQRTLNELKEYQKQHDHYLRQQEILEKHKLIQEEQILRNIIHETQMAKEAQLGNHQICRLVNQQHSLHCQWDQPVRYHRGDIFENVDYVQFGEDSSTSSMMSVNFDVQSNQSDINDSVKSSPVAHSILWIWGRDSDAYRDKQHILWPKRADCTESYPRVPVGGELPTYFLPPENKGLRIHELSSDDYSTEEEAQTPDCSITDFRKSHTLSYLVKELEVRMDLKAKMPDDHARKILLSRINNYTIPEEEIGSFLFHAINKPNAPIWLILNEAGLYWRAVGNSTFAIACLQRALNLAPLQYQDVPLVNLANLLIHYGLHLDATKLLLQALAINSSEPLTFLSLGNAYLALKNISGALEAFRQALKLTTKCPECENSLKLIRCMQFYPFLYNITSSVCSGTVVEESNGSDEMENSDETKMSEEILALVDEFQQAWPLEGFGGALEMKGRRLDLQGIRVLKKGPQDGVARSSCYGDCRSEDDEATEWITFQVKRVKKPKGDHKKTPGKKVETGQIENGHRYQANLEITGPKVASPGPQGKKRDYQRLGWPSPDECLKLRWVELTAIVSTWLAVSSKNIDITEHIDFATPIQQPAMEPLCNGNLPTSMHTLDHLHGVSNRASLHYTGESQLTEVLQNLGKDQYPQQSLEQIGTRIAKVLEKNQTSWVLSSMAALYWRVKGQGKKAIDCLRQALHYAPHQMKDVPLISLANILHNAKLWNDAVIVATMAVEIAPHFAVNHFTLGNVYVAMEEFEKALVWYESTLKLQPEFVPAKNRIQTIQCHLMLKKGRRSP
UniProt Q9H4B7, whole entry, looked up: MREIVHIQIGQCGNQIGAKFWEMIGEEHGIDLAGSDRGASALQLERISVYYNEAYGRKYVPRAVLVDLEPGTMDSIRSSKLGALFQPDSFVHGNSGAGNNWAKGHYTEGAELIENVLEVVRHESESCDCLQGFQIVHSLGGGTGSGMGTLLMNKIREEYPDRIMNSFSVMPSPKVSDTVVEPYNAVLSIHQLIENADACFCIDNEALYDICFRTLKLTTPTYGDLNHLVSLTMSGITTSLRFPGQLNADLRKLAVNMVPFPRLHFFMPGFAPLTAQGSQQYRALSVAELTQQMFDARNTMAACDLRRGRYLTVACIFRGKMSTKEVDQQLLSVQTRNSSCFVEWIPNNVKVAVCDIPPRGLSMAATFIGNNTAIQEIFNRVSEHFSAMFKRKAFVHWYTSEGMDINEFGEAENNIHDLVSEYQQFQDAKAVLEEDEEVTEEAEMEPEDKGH
UniProt Q9BRA2: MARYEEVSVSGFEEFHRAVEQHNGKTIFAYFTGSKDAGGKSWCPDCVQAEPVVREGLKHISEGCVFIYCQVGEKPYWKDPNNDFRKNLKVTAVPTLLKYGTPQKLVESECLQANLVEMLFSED
UniProt Q9BUF5, whole entry, looked up: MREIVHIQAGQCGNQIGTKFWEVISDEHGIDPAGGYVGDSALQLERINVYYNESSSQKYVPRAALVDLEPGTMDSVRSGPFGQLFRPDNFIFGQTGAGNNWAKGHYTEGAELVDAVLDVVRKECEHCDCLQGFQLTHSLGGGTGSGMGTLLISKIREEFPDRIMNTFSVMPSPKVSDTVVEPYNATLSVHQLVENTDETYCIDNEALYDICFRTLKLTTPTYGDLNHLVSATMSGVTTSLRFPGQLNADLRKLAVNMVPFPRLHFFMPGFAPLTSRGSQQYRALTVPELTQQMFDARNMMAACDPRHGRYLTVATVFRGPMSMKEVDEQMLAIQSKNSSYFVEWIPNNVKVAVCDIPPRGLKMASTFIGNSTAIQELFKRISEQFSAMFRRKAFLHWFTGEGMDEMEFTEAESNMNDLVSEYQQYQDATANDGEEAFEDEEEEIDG
UniProt Q13885, whole entry, looked up: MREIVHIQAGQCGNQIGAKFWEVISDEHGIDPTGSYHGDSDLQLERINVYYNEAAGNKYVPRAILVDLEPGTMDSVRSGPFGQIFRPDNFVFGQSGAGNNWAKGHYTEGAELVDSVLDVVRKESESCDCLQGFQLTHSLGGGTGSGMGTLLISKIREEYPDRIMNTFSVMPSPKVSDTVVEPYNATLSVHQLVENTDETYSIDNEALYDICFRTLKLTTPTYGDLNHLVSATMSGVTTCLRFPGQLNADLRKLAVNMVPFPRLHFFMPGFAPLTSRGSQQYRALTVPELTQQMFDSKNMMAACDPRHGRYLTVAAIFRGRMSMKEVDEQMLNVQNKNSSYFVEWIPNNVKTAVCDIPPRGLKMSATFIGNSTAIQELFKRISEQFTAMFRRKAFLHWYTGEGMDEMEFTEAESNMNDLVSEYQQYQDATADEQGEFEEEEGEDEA
UniProt P61077: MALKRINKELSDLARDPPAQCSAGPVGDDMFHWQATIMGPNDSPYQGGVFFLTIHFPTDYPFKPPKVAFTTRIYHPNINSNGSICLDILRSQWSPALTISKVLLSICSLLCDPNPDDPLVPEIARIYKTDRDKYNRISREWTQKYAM
UniProt Q16763: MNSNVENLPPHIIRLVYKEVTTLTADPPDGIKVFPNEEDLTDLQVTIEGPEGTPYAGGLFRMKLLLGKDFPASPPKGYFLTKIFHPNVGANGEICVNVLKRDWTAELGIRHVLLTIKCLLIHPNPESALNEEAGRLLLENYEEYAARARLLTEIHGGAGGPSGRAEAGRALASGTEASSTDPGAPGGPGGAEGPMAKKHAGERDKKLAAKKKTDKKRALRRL
UniProt Q9BQE3, whole entry, looked up: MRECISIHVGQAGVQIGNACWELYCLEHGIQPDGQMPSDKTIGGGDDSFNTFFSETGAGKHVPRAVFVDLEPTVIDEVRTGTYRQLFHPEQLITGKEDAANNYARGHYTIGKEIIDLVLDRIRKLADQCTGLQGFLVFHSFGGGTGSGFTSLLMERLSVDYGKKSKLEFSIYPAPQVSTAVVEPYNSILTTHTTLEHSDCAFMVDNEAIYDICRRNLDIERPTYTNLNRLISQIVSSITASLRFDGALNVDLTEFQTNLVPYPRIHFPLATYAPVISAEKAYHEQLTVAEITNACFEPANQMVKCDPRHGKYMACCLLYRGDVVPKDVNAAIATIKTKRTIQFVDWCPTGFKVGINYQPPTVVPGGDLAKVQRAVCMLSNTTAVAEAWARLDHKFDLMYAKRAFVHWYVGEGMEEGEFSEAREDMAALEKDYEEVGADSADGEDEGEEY
UniProt Q969T4: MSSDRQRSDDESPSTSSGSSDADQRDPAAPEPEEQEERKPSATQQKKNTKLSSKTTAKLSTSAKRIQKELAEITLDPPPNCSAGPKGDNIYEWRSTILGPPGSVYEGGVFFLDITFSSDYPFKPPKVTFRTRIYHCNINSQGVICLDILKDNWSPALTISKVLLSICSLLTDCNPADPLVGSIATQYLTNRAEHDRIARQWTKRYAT
UniProt Q8NG68: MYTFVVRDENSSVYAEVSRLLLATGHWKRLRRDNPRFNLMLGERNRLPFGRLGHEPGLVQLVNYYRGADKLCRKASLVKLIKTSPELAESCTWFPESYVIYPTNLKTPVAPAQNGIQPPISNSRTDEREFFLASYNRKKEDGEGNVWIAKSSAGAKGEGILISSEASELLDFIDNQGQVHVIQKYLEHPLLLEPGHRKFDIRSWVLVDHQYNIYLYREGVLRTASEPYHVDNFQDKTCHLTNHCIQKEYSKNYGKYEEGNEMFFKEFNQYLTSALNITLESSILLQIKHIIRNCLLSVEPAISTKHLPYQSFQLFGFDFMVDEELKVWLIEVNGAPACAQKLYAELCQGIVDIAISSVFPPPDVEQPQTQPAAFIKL

What was measured:
Experiment in all cases: log2 fold change, soluble protein after heating vs DMSO (PISA); higher = thermal stabilisation; K562 cells, 10 uM, 30 min; active = over 0.2 and 3.5 SD of the protein, either way, in both replicates (recomputed)
[1] = compound: C#Cc1cccc(Nc2ncnc3cc(OCCOC)c(OCCOC)cc23)c1 [erlotinib]
Summary of the method: (§1)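 Soluble protein was quantified by TMTpro 16plex LC-MS/MS after channel sums were equalised. It was obtained as the supernatant after 21,000xg for 90 min from pooled aliquots of K562 cells (2×10^6 cells/mL, 10 μM compound, 30 min) heated for 3 min across 48°C-58°C and extracted in PBS with 0.5% NP-40 at 4°C. Thermal stability values are relative to control samples and come from duplicates. They are given as log2 fold changes.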

[2] = compound: C/C(=N\NC(=O)C1=CC(=CC=C1)S(=O)(=O)N2CCOCC2)/C3=C(C=CC(=C3)Cl)O
Summary of the method: as §1

[3] = compound: C1=CC(=C(C=C1Cl)C2=NC3=NC=CN=C3C(=N2)NC4=CC=NC=C4)F
Summary of the method: as §1

[4] = compound: C1=CC(=CC=C1C2=NC3=C(N2)C=C(C=C3)C(=O)N)OC4=CC=C(C=C4)Cl
Summary of the method: as §1

[5] = compound: C1=CC2=C(C=CC(=C2)/C=C\3/C(=O)NC(=NCC4=CC=CS4)S3)N=C1
Summary of the method: as §1

[6] = compound: C1=CC2=NC=CN=C2C=C1/C=C/3\C(=O)NC(=O)S3
Summary of the method: as §1

[7] = compound: C1=CC=C(C=C1)C2=NC(=C(N2)C3=CC=NC=C3)C4=CC(=C(C=C4)Cl)O
Summary of the method: as §1

[8] = compound: C1=CC=C2C(=C1)C3=NNC4=CC=CC(=C43)C2=O
Summary of the method: as §1

[9] = compound: C1CCN(C1)C(=O)NC2=CC=CC(=C2)NC3=NC=C(C(=N3)NCCC4=CN=CN4)Br
Summary of the method: as §1

[10] = compound: C1CN(CCC1(CC2=CC=C(C=C2)Cl)N)C3=NC=NC4=C3C=CN4
Summary of the method: as §1

Measured: log2 fold change

UBAC1 (UniProt Q9BSL1)
inactive: [1] 0.011 | [2] 0.028 | [3] 0.049 | [4] -0.014 | [5] 0.027 | [6] 0.023 | [7] -0.009 | [8] -0.038 | [9] 0.004 | [10] -0.051

UBAP2L isoform 1 (UniProt Q14157)
inactive: [1] -0.126 | [2] 0.013 | [3] -0.003 | [4] 0.083 | [5] -0.06 | [6] -0.023 | [7] 0.04 | [8] -0.024 | [9] -0.082 | [10] 0.017

TWSG1 (UniProt Q9GZX9)
inactive: [1] 0.135 | [2] -0.024 | [3] 0.067 | [4] 0.017 | [5] 0.007 | [6] 0 | [7] -0.056 | [8] -0.083 | [9] 0.007 | [10] 0.044

UBE2J1 (UniProt Q9Y385)
inactive: [1] 0.053 | [2] 0.063 | [3] -0.033 | [4] 0.045 | [5] 0.148 | [6] 0.054 | [7] 0.043 | [8] 0.036 | [9] -0.097 | [10] 0.012

TYMS (UniProt P04818)
inactive: [1] 0.023 | [2] 0.126 | [3] -0.019 | [4] 0.025 | [5] 0.013 | [6] -0.018 | [7] 0.045 | [8] 0.047 | [9] -0.104 | [10] 0.016

UBA1 (UniProt P22314)
inactive: [1] 0.1 | [2] 0.166 | [3] 0.074 | [4] -0.024 | [5] 0.114 | [6] -0.004 | [7] 0.065 | [8] 0.023 | [9] -0.034 | [10] -0.175

2 neighbouring records already listed, for reference:
TYMS (UniProt P04818)
inactive: [1] 0.023 | [2] 0.126 | [3] -0.019 | [4] 0.025 | [5] 0.013 | [6] -0.018 | [7] 0.045 | [8] 0.047 | [9] -0.104 | [10] 0.016

UBA1 (UniProt P22314)
inactive: [1] 0.1 | [2] 0.166 | [3] 0.074 | [4] -0.024 | [5] 0.114 | [6] -0.004 | [7] 0.065 | [8] 0.023 | [9] -0.034 | [10] -0.175

More records.

TUBA8 (UniProt Q9NY65)
inactive: [1] 0.12 | [2] -0.356 | [3] -0.522 | [4] 0.232 | [5] -0.021 | [6] 0.032 | [7] -0.261 | [8] 0.113 | [9] -0.117 | [10] 0.028

TTC17 (UniProt Q96AE7)
inactive: [1] -0.055 | [2] -0.041 | [3] -0.004 | [4] 0.031 | [5] -0.018 | [6] 0.034 | [7] -0.068 | [8] 0.002 | [9] 0.054 | [10] -0.034

TUFM (UniProt P49411)
inactive: [1] 0.04 | [2] 0.088 | [3] 0.08 | [4] -0.002 | [5] 0.017 | [6] -0.016 | [7] 0.065 | [8] 0.097 | [9] 0.013 | [10] -0.118

TXNDC12 (UniProt O95881)
inactive: [1] -0.055 | [2] 0.006 | [3] 0.011 | [4] -0.028 | [5] 0.044 | [6] 0.009 | [7] 0.005 | [8] -0.012 | [9] 0.016 | [10] -0.042

TSR3 (UniProt Q9UJK0)
inactive: [1] -0.047 | [2] -0.032 | [3] -0.189 | [4] 0.061 | [5] 0.033 | [6] -0.039 | [7] -0.053 | [8] 0.02 | [9] -0.03 | [10] -0.044

TUBB1 (UniProt Q9H4B7)
inactive: [1] 0.036 | [2] 0.035 | [3] 0 | [4] 0.021 | [5] -0.049 | [6] -0.026 | [7] 0.146 | [8] 0.003 | [9] -0.036 | [10] 0.072

UBE3A (UniProt Q05086)
inactive: [1] 0.001 | [2] 0.036 | [3] 0.026 | [4] 0.017 | [5] 0.017 | [6] 0.005 | [7] 0.001 | [8] 0.012 | [9] -0.012 | [10] 0.017

TXNL1 (UniProt O43396)
inactive: [1] -0.012 | [2] 0.096 | [3] 0.009 | [4] -0.031 | [5] -0.011 | [6] -0.018 | [7] 0.014 | [8] 0.016 | [9] -0.001 | [10] -0.077

UBE2Z (UniProt Q9H832)
inactive: [1] 0.046 | [2] 0.079 | [3] 0.048 | [4] 0.006 | [5] 0.026 | [6] 0.022 | [7] -0.097 | [8] -0.046 | [9] 0 | [10] 0.043

U2AF2 (UniProt P26368)
inactive: [1] 0.012 | [2] 0.045 | [3] -0.013 | [4] 0.029 | [5] -0.045 | [6] -0.004 | [7] 0.012 | [8] -0.048 | [9] -0.026 | [10] -0.074

TUBB6 (UniProt K7ES63)
inactive: [1] 0.276 | [2] -0.235 | [3] 0.055 | [4] -0.04 | [5] 0.221 | [6] 0.098 | [7] 0.055 | [8] -0.118 | [9] 0.229 | [10] 0.09

TXNDC17 (UniProt Q9BRA2)
inactive: [1] -0.049 | [2] 0.044 | [3] 0.112 | [4] -0.004 | [5] -0.033 | [6] -0.035 | [7] 0 | [8] -0.032 | [9] -0.046 | [10] 0.037

TUBB6 (UniProt Q9BUF5)
inactive: [1] 0.005 | [2] 0.014 | [3] 0.039 | [4] 0.022 | [5] 0 | [6] -0.06 | [7] 0.022 | [8] 0.004 | [9] 0.001 | [10] 0.044

UBC (UniProt P0CG48)
inactive: [1] -0.007 | [2] -0.021 | [3] -0.004 | [4] 0.011 | [5] 0.024 | [6] -0.044 | [7] -0.054 | [8] 0.009 | [9] 0.043 | [10] -0.041

TUBB2A (UniProt Q13885)
inactive: [1] 0.031 | [2] -0.008 | [3] 0.086 | [4] 0 | [5] -0.007 | [6] -0.008 | [7] -0.004 | [8] -0.007 | [9] -0.006 | [10] 0.051

UBE2D3 isoform 3 (UniProt P61077)
inactive: [1] 0 | [2] 0.064 | [3] 0.105 | [4] -0.007 | [5] 0.033 | [6] 0.024 | [7] 0.023 | [8] 0.054 | [9] -0.009 | [10] 0.001

UBAP2L isoform 5 (UniProt Q14157)
inactive: [1] 0.057 | [2] -0.005 | [3] 0.005 | [4] 0 | [5] 0.013 | [6] 0.015 | [7] -0.029 | [8] -0.03 | [9] -0.007 | [10] 0.026

UBE2S (UniProt Q16763)
inactive: [1] 0.01 | [2] 0.064 | [3] -0.025 | [4] -0.021 | [5] 0.052 | [6] 0.014 | [7] -0.008 | [8] 0.014 | [9] -0.02 | [10] 0.029

TUBA1C (UniProt Q9BQE3)
inactive: [1] 0.017 | [2] 0.031 | [3] 0.061 | [4] 0.046 | [5] 0.022 | [6] -0.035 | [7] 0.004 | [8] 0.007 | [9] 0.002 | [10] 0.099

TXNIP (UniProt Q9H3M7)
inactive: [1] 0.013 | [2] 0.017 | [3] 0.082 | [4] 0.025 | [5] 0.108 | [6] 0.124 | [7] 0.141 | [8] 0.034 | [9] 0.137 | [10] 0.041

U2AF1 isoform 2 (UniProt Q01081)
inactive: [1] 0.015 | [2] 0.119 | [3] -0.02 | [4] -0.036 | [5] -0.038 | [6] 0.015 | [7] 0.036 | [8] -0.036 | [9] -0.071 | [10] -0.071

UBE2E3 (UniProt Q969T4)
inactive: [1] 0.063 | [2] 0.112 | [3] 0.152 | [4] -0.034 | [5] 0.083 | [6] 0.009 | [7] 0.014 | [8] 0.045 | [9] -0.028 | [10] -0.019

TTL (UniProt Q8NG68)
inactive: [1] 0.064 | [2] -0.04 | [3] 0.043 | [4] 0.012 | [5] 0.054 | [6] -0.004 | [7] -0.046 | [8] -0.032 | [9] -0.027 | [10] 0.033
